No constants are given. Whether binding was seen depends on the method and setting. Some results given as binding are weak or reduced against the parent protein; the word gives no strength. One block for each molecule: values may come before it.
Assays:
[1] = biological target: hFAN1_360 (human FAN1 without its first 359 residues) (human) (UniProt Q9Y2M0); test: SEC; analytical gel filtration, S200, retention times against molecular weight standards; both purified
[2] = biological target: psNUC, VRR-Nuc single-domain protein of Psychrobacter (Psychrobacter) (UniProt A5WF35); test: crystal structure; sitting drop vapor diffusion, Morpheus screen; data collected at 100 K; homodimers seen in the crystals; both purified
[3] = biological target: Pseudomonas aeruginosa FAN1 (Pseudomonas aeruginosa) (UniProt Q9I2N0); test: SEC; analytical gel filtration, S200, retention times against molecular weight standards; both purified
[4] = biological target: Pseudomonas aeruginosa FAN1 (Pseudomonas aeruginosa) (UniProt Q9I2N0); test: AUC; sedimentation velocity, 50,000 rpm, 277 K, 50 mM Tris/HCl pH 8.0, 300 mM NaCl, 0.50 mM TCEP, interference optics, SEDFIT c(s) and c(M); both purified

Sequences of proteins named here, by UniProt entry; tags and fusion partners are left off. Residues count along the entry.
UniProt Q9Y2M0, residues 360-1017: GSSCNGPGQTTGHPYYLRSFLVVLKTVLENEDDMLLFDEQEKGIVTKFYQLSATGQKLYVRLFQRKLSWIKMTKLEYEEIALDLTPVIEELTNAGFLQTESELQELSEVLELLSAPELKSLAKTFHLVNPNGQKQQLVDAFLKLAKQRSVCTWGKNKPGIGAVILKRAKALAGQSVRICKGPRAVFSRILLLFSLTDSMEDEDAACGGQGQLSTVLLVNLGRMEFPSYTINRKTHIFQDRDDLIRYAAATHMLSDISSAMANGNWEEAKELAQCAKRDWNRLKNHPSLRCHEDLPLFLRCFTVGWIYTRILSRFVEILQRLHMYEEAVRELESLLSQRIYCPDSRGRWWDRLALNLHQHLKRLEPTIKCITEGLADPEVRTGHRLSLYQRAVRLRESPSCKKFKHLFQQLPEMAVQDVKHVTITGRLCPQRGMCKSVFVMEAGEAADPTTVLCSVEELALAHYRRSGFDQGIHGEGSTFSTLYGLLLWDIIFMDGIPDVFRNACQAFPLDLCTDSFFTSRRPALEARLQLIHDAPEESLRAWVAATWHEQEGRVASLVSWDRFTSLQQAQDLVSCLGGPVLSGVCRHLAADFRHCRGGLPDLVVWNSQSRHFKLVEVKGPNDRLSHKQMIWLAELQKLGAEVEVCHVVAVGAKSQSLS

binding [1]: no binding
Molecule: hFAN1_360 (human FAN1 without its first 359 residues) (from UniProt Q9Y2M0 360-1017) (domain or fragment)

binding [2]: binds
B1: psNUC, VRR-Nuc single-domain protein of Psychrobacter (enzyme)
chain: RLKGLTEDEVQTVVMNWSKRQKFKGRPLFDYIHHSPNGGKRAAKIGSSGKRYSPEAAKFKRMGVKAGYPDLIIDIARGAYHGLRIEIKKDGNSYATPAQKERIEMLAKEGYCAVVAKGIDNVISVIQQYIKLGDFDGVSQLTADK
notes: psNUC, standalone VRR-Nuc domain protein of Psychrobacter, UniProt A5WF35; Synthetic gene (GeneART) in pGEX 6P-1; The structure was solved by SAD on a selenomethionine derivative; source: E. coli, purified (glutathione-Sepharose, 3C protease cleavage, Superdex gel filtration)

binding [3]: no binding
binding [4]: no binding
B2: Pseudomonas aeruginosa FAN1 (enzyme, UniProt Q9I2N0 1-559)
chain: MHEQYQAPLPVNSPALPEPFYYLHNFRAVLAWIGERYADLLDDQERAFIAAFAELPEASQALLVRMVMRKGTLFREGKLAYAEIGDTRAAVQPLLALGWVDAQPTLELAQLFGLLKKDELSQLFRDHLGRANLRKDALLERLQPLFPEARRLAEWQADFAEPVYELRCMALCDRLRLMYFGNLWQDWSEFVLADLGIYRYESVEFSADSRGFRLRADVDAYLHLFDCRQRFDLGEPLEELLAGLPGEPYANPWLEGRRVKLLFQFAQHCEKQRDFDLAQRLYRQSSHPGARLRAIRSLERGERFAEAHALAREASCAPESDAERQGLARLLPRLQGKLGLPRQARAAAPEIDRLDLCLAFPSEPCSVEWAVREHLEEPGCAVHYVENGLINSLFGLLCWEAIFAAIPGAFFHPFHSAPADLHSADFRQRRAALFEACLGRLEDGSYRDAIRCRYRDKFGLQSPFVYWELLGEELLEQALDCLPAAHLRAWFERLLEDIPGNRAGLPDLIQFWPAQRRYRMVEVKGPGDRLQDNQLRWLQFCREREMPVAVCYVRWHVDD
